This note sets out measurements from publication doi:10.1101/2025.07.15.664877.

These are yes or no findings as the source states them, for the method shown. In cells and extracts the contact can be indirect. Some binding calls cover weakened binding; strength is not graded here. Tags and fused reporters may be left off the sequences shown.

The experiment concerns the target T1, Ste20^RICTOR-GFP (S. pombe) (UniProt Q09743).
T1 sequence: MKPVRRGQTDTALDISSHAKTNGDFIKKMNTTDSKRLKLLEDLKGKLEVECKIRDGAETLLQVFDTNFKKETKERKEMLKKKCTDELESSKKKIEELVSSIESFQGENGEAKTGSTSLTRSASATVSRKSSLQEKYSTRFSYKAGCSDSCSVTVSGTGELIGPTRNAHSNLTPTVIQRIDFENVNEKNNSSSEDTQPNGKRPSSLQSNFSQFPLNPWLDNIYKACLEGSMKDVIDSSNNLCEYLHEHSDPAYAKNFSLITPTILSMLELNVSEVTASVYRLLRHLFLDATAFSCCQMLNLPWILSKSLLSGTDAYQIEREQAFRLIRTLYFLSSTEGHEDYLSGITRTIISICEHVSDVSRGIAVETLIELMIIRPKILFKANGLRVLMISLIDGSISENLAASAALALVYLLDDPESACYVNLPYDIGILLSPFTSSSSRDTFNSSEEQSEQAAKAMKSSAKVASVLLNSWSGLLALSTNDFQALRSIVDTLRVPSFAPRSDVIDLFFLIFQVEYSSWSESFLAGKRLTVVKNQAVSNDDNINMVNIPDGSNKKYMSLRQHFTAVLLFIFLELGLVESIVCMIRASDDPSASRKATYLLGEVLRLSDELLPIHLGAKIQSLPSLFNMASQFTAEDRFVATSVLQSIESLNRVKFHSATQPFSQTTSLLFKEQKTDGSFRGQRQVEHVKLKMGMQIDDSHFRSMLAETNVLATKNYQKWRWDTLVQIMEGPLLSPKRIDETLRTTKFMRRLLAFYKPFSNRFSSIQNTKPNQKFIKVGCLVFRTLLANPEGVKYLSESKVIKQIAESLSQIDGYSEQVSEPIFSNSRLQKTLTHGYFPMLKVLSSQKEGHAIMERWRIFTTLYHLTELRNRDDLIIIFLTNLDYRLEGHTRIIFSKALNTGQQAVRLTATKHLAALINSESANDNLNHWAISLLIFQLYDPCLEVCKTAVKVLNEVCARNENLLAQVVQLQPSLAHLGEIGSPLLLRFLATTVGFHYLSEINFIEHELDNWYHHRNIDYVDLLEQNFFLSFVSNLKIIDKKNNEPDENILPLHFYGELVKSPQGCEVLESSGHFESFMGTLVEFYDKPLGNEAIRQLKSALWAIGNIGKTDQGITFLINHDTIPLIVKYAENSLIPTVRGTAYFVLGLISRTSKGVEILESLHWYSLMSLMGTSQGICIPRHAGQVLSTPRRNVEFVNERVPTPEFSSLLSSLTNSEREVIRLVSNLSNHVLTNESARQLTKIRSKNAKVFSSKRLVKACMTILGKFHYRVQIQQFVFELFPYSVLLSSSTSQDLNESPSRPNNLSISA
Kind of experiment: co-IP.

B1: Gad8-HA (enzyme, UniProt Q9P7J8 1-569)
chain: MSWKLTKKLKETHLASAIGLNSGGSSFTRGLKNSTLSSTSSRKSSDEKSRKSSEDKRSPQSTVVQPGLLQVTIIEARNLKLPSGHVPANYGVSIDNSLLAPPLSNGSGHARSRSHAWWLPYIVVEFDKNEILVDALNTASLENPCWDYQATFDVSRYSKLSLNIYLRSSSSRSRNGMGNDAFLGGIKLSPSFIVNKLTDEWVPLHGGSGELRVQMLYKPNQSTPLTIDAFELLKVVGKGSFGKVMQVRKRDTSRIYALKTMKKAHIVSRSEVDHTLAERTVLAQVNNPFIVPLKFSFQSPGKLYLVLAFVNGGELFHHLQREGCFDTYRAKFYIAELLVALECLHEFNVIYRDLKPENILLDYTGHIALCDFGLCKLNMAKTDRTNTFCGTPEYLAPELLLGHGYTKVVDWWTLGVLLYEMITGLPPFYDENINEMYRKILQDPLRFPDNIDEKAKDLLSGLLTRAPEKRLGSGGAQEIKNHPFFDDIDWKKLCAKKIQPPFKPSVESAIDTSNFDSEFTSEIPMDSVVADSHLSETVQQRFANWSYQRPTTIDTSDDINTIAPGSVIR
As to B1, the binding entry is on record as “binds”.
